Source: patent US20090004171A1, “COMPOUND PROFILING METHOD” (CYTOPATHFINDER, INC., priority 2007, published 2009)
At least one compound was matched to its structure with a doubt left.

Tested on: SHSY5Y cell
Assay: Exposure of SHSY5Y neuroblastoma cells to differentiation stimulants (neuron projection extension, marker enzyme expression)
Type: cell-based
Details: human neuroblastoma
Text: The functions of (1) and (2) are different, but share the same properties in terms of extension of neuron projection. Therefore, cellular components necessary for these two intracellular alteration were specified experimentally by means of RNA interference method. As such, it was obtained that the component collection (3) necessary for the alteration from SHSY5Y to (1) are {JAK1, JAK3, ROR, and RET}. On the other hand, the component collection (4) necessary for the alteration from SHSY5Y cells to (2), are {NTRK1, EPHB2, INSR, RDGFRA, ROR and RET}. When comparing and calculation of intersection is done for (3) and (4), the intersection (5) was obtained to read {ROR and RET}. Next, the collection (6) {JAK1 and JAK3} by subtraction of (3)−(5) and the collection (5) were analyzed in terms of an intermolecular interaction, and the existence of a pathway of a molecular signals from (6) to (5) (FIG. 3A) was determined. Furthermore, the collection (7) which was obtained by the subtraction of (4)−(5), and the collection (5) were analyzed in terms of an intermolecular interaction, and the existence of a pathway of molecular signals from (7) to (5) (FIG. 3B) was further determined. The common components and pathway relating to the projection extension by retinoic acid (RA) and Nerve Growth Factor (NGF) are shown in FIG. 4.

SMILES: CC1=C(/C=C/C(C)=C/C=C/C(C)=C/C(=O)O)C(C)(C)CCC1 [Retinoic acid]
- expression of choline acetyl transferase: raise expression of choline acetyl transferase
- extension of neuron projection: cause extension of neuron projection
